Where a name gives a salt, the structure may show the parent alone.

The test system of the test is Huh7 cells expressing a subgenomic RNA replicon of Con1 (genotype 1b). Kind of test: HCV replicon assay (luciferase, SteadyLite), Example 1. The format is cell-based. The conditions noted are these: Hepatitis C virus, Huh-7; single agent; read-out: IC50 (concentration required to achieve 50% inhibition of viral replication). As for the experimental part:
The HCV replicon assay enables screening of compounds with antiviral activity against HCV viral RNA replication. Huh7 cells expressing a subgenomic RNA replicon of Con1 (genotype 1b) sequence origin and expressing the reporter enzyme luciferase were obtained from ReBLikon, GmBH. In order to perform the assay, replicon cells were seeded on a 384-well plate at 4,000 cells/well in a total volume of 30 μL well. The plated cells were incubated at 37° C., 5% CO2. Pre-diluted compounds at a 10× concentration were added to each well to achieve the desired final concentration. Plates were centrifuged at 900×g, 1 minute following the addition of compounds. Cells were incubated an additional 48 hours or 72 hours at 37° C., 5% CO2. […] Antiviral activity was quantified by the inhibition of luciferase activity. […]
For screens involving a combination of compounds, a synergy score was calculated by the formula S=log fX log fYΣIdata(Idata−/ILoewe), summed over all non-single-agent concentration pairs, and where log fX,Y are the natural logarithm of the dilution factors used for each single agent. This effectively calculates a volume between the measured and Loewe additive response surfaces, weighted towards high inhibition and corrected for varying dilution factors. […]
For orientation: A replicon is a self-replicating genome or part of one, used to study replication in cells.

On to `CCN(CC)CCOc1ccc(/C(=C(\Cl)c2ccccc2)c2ccccc2)cc1` [Clomiphene citrate, Clomiphene], for which the IC50 is 1010 nM.

Source of the values: US20100092479A1, “Compositions and methods for treatment of viral diseases” (CombinatoRx (Singapore) Pte. Ltd., priority 2008, published 2010).
